Measured values reported in doi:10.1101/2020.05.20.107664.
Numbering of substitutions follows the chain as printed. These are yes or no findings as the source states them, for the method shown. Binding seen in cells or lysates may run through a third protein. A result given as binding can be weak or reduced; the word gives no strength. Sequences can lack the tags named with a protein.

Legend:
[1] = biological target: T1, wild-type α-COP (α-COP-FLAG), stably expressed in MEFs (mouse) (UniProt Q8CIE6); assay: co-IP
T1 sequence: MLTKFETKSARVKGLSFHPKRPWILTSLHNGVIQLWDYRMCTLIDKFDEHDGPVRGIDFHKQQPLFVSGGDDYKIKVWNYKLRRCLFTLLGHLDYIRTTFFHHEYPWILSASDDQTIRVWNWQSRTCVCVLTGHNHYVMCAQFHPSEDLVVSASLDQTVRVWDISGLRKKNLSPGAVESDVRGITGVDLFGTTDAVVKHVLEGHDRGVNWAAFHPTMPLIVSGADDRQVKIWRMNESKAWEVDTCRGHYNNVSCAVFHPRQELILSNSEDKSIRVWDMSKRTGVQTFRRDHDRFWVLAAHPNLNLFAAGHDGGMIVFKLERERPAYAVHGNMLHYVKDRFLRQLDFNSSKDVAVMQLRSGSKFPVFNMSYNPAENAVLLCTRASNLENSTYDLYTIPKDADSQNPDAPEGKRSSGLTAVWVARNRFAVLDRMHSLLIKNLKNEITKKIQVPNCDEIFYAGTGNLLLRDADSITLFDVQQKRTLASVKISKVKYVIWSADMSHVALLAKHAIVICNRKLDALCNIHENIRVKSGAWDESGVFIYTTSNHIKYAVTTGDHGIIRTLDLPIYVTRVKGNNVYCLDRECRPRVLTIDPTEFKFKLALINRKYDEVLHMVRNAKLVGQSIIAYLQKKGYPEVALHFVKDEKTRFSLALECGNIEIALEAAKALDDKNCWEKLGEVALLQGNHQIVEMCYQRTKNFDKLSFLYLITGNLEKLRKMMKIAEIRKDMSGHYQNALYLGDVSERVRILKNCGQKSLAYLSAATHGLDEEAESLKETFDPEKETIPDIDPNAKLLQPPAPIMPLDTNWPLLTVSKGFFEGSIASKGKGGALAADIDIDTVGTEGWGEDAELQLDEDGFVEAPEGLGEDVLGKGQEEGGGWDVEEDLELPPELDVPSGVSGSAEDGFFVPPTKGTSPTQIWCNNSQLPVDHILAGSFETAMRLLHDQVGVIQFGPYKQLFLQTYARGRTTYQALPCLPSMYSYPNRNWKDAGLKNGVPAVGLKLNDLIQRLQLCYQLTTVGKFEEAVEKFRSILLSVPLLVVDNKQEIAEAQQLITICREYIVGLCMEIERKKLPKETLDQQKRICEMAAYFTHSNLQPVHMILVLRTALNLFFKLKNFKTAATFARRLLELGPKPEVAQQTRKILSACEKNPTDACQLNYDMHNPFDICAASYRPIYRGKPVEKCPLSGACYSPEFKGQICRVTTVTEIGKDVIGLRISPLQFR

[2] = biological target: T2, α-COP variant R233H (α-COP-FLAG), stably expressed in MEFs (mouse) (UniProt Q8CIE6); assay: co-IP
T2 sequence: T1 sequence with R233H

## EGFP-mouse STING, stably expressed in MEFs
[1]
  binding: binds
[2]
  binding: binds
